Experimental data reported in the supplement of paper PMC8426693.
This is one part of the list.

Assays:
Experiment in all cases: NMR binding call after quantification (hit when 2 of 3 NMR criteria are met) (binary (1 = binding, 0 = not binding)); higher = binding
Conditions in all cases: RNA concentration 10 µM; fragment concentration 200 µM; 293 K
[1] = tested on: SARS-CoV-2 3'-UTR RNA
[2] = tested on: SARS-CoV-2 3_SL1 RNA
[3] = tested on: SARS-CoV-2 3_SL1+2 RNA
[4] = tested on: SARS-CoV-2 3_SL2 RNA
[5] = tested on: SARS-CoV-2 3_SL3base RNA
[6] = tested on: SARS-CoV-2 3_s2m RNA

Measured: NMR binding call

COCC1CN(c2ccccn2)CCO1 (stereo not given)
0: all assays above

CC(C)(C)C(=O)NCCc1nc2ccccc2[nH]1
0: all assays above

NC(=S)Nc1ccccc1OC(F)(F)F
0: all assays above

CC(C)NCc1ccc(N(C)C)cc1
0: all assays above

c1ccc2c(CN3CCCCCC3)c[nH]c2c1
0: all assays above

CCCC(=O)NCc1nc2ccccc2[nH]1
0: all assays above

CC(=O)N1CCCC(C(N)=O)C1 (stereo not given)
0: all assays above

Nc1cccc(OCc2ccccc2)c1
0: all assays above

Cc1csc(CNC(=O)c2cc[nH]n2)n1
0: all assays above

O=C(Nc1nccs1)C1CC1c1ccccc1 (stereo not given)
0: all assays above

CC(=O)N1CC(O)CC1C(=O)O (stereo not given)
0: all assays above

COCCNC1CCN(C(C)=O)CC1
0: all assays above

Cc1nnc(NC(=O)N2CCOCC2)s1
0: all assays above

CCNc1ncccc1C
0: all assays above

Oc1ccc(CN2CCc3ccccc3C2)cc1
0: all assays above

OCC1CCN(c2ncccn2)CC1
0: all assays above

CNC(C)c1cnn(C)c1 (stereo not given)
0: all assays above

CC(=O)NCCc1ccccc1C
0: all assays above

CC(O)CNCc1ccc2c(c1)OCO2 (stereo not given)
0: all assays above

Cc1nnc(N2CCCCC2)s1
0: all assays above

Cl.O=C(CC(F)(F)F)N1CCNCC1
0: all assays above

Oc1ncc(NCCc2ccccc2)c(O)n1
0: all assays above

CN1CCCC1CO (stereo not given)
0: all assays above

CC(N)CN1CCOCC1 (stereo not given)
0: all assays above

CCOc1ncccc1C(N)=O
0: all assays above

Cn1cc(C(N)=O)c(C(F)F)n1
0: all assays above

CC(=O)NCc1cncs1
0: all assays above

CCn1c(NC(C)=O)nc2ccccc21
0: all assays above

CCN1N=C(C(F)(F)F)CC1=O
0: all assays above

CC1CN(C(=O)Cn2cccn2)CCO1 (stereo not given)
0: all assays above

CN(C)C(=O)N1CCN(C(=O)N(C)C)CC1
0: all assays above

Cc1nc(CN2CC(F)CC2CN)cs1 (stereo not given)
0: all assays above

CN1CCN(S(=O)(=O)N(C)C)CC1
0: all assays above

CC1CN(C)CCC1Nc1cnn(C)c1 (stereo not given)
0: all assays above

CCn1nccc1CNC.Cl.Cl
0: all assays above

CC1CCC(C(=O)N2CCC=C(F)C2)O1 (stereo not given)
0: all assays above

Cc1ccc(N2CCN(C(N)=O)CC2)cc1
0: all assays above

Oc1ccccc1CN1CCOCC1
0: all assays above

Cc1cccc(C(=O)N2CCC(C(N)=O)CC2)c1
0: all assays above

CC1CCCCN1C(=O)c1cnccn1 (stereo not given)
0: all assays above

O=C(Nc1nncs1)c1ccccc1F
0: all assays above

O=C(NCc1ccco1)Nc1ccc(F)cc1
0: all assays above

CCC(=O)Nc1ccc(C)cc1O
0: all assays above

CCS(=O)(=O)N1CCC(C(=O)O)CC1
0: all assays above

CC(=O)Nc1ccc(C#N)cc1
0: all assays above

O=C(Nc1ccc(N2CCOCC2)cc1)C1CC1
0: all assays above

CC(=O)N1CCN(C(N)=O)CC1
0: all assays above

CC(CO)Nc1ncc(Cl)cc1F (stereo not given)
0: all assays above

O=C(Nc1nc2ccccc2[nH]1)C1CCCCC1
0: all assays above

CN1CCN(C(=O)CO)CC1
0: all assays above

CCC(=O)Nc1ccc2[nH]c(=O)[nH]c2c1
0: all assays above

CC1CN(C(=O)c2cnccn2)CCO1 (stereo not given)
0: all assays above

CNc1ncccn1
0: all assays above

Cc1nc(C(=O)N2CCCC2)c(C)s1
0: all assays above

Oc1ccccc1-c1nc(-c2ccccc2)no1
0: all assays above

COC(=O)C1CCN(C(=O)NC(C)(C)C)CC1
0: all assays above

CCN(CC)C(=O)c1cc(C)no1
0: all assays above

CNC(=O)C1CNCCO1 (stereo not given)
0: all assays above

CN(C)C(=O)CNc1ccccc1
0: all assays above

Cn1cc(CNC(=O)c2ccco2)cn1
0: all assays above

CCNC(=O)CN1CC(C)OCC1C (stereo not given)
0: all assays above

O=C(Nc1nnc(-c2ccco2)s1)C1CC1
0: all assays above

COc1ccc(NCc2ccccc2O)cc1
0: all assays above

CC(=O)NC(C)(C(=O)O)C1CC1 (stereo not given)
0: all assays above

O=C(NCc1nc2ccccc2[nH]1)c1ccco1
0: all assays above

Oc1ccccc1CN1CCc2ccccc2C1
0: all assays above

COc1ccc(C(N)C(=O)O)cc1 (stereo not given)
0: all assays above

CNc1nccc(OC)n1
1: [1]
0: all other assays above

CS(=O)(=O)NC1CCNCC1
0: all assays above

CC1CCCC1NCCO (stereo not given)
0: all assays above

Cc1cccc(C(=O)NC(C)C2CC2)n1 (stereo not given)
0: all assays above

At a glance, four of the compounds above:
O=C(NCc1nc2ccccc2[nH]1)c1ccco1
0: all assays above

Oc1ccccc1CN1CCc2ccccc2C1
0: all assays above

COc1ccc(C(N)C(=O)O)cc1 (stereo not given)
0: all assays above

CNc1nccc(OC)n1
1: [1]
0: all other assays above

(cont.)

COc1ccc(CNC(=O)c2csnn2)cc1
0: all assays above

CC(C)Nc1ncccn1
0: all assays above

Grouped by structure: the compounds so far containing a COOH group.
CC(=O)N1CC(O)CC1C(=O)O (stereo not given)
0: all assays above

CCS(=O)(=O)N1CCC(C(=O)O)CC1
0: all assays above

CC(=O)NC(C)(C(=O)O)C1CC1 (stereo not given)
0: all assays above

COc1ccc(C(N)C(=O)O)cc1 (stereo not given)
0: all assays above

Following part:

O=C(COc1ccccc1)NC1CCCCC1
0: all assays above

C1CN(CC2CCOCC2)CCN1
0: all assays above

CC(N)c1ccc(NC(=O)C2CC2)cc1.Cl (stereo not given)
0: all assays above

CS(=O)(=O)Nc1ccc(CN)cc1.Cl
0: all assays above

c1cnc(N2CCC3(CCOC3)C2)cn1 (stereo not given)
1: [1]
0: all other assays above

CC(NS(C)(=O)=O)c1ccccc1Cl (stereo not given)
0: all assays above

Cc1ccc(NC(=O)c2ccccc2C)c(O)c1
0: all assays above

C(#Cc1ccccc1)CN1CCCCC1
0: all assays above

N#CCCN1CCOCC1
0: all assays above

CCC(=O)Nc1ccc(N2CCC(C)CC2)cc1
0: all assays above

O=C(CN1CCCC1)Nc1cccc(Cl)c1
0: all assays above

CCOC(=O)c1ccoc1
0: all assays above

CN1CCN(C(=O)C2CCCN2)CC1 (stereo not given)
0: all assays above

Fc1ccccc1CNc1cn[nH]c1
0: all assays above

NNC(=O)c1ccc(OCc2ccccc2)cc1
0: all assays above

Cl.O=C(O)CN1CCC(c2ccccc2)CC1
0: all assays above

CNC(=O)CN(C)C1CCCCCC1
0: all assays above

Cc1cc(NC(=O)CSc2ccccc2)no1
0: all assays above

CC1CN(C(=O)c2cnsn2)C(C)CO1 (stereo not given)
0: all assays above

COc1ccc(C)cc1NC(=O)Nn1cnnc1
0: all assays above

N#Cc1ccc(Cn2cnc3ccccc32)cc1
0: all assays above

CC(=O)NCCc1ccc(S(N)(=O)=O)cc1
0: all assays above

COc1cccc2[nH]ccc12
0: all assays above

CC(=O)Nc1cccc(C(=O)O)c1C
0: all assays above

CC(C)NC(=O)CN1CCCNCC1
0: all assays above

CNC(=O)c1cccc(C(=O)O)n1
0: all assays above

c1ccc(CN2CCC(n3cccc3)CC2)cc1
0: all assays above

NC(=O)c1cnc(C(F)(F)F)nc1
0: all assays above

CC(C)Nc1cccnc1
0: all assays above

CSc1nsc(NC(C)=O)n1
0: all assays above

CN(C(=O)C1CCNC1)c1ccccc1.Cl (stereo not given)
0: all assays above

CC(=O)Nc1cccc(F)c1C(=O)O
0: all assays above

CCc1ccccc1NC(=O)c1snnc1C
0: all assays above

Fc1cccnc1NCC1CCOCC1
0: all assays above

CC1CNCCN1CCO (stereo not given)
0: all assays above

COC(=O)c1sccc1NC(=O)C1CC1
0: all assays above

N#Cc1ccc(N2CCNCC2)c(F)c1
0: all assays above

CC(=O)N1CC(C(=O)O)C1
0: all assays above

Cn1cc(C(=O)O)c(-c2ccncc2)n1
0: all assays above

CCOC(=O)CN1CCCCC1
0: all assays above

CCOC(=O)CN1CCS(=O)(=O)CC1
0: all assays above

CCN1CCN(C(=O)NC2CCCCC2)CC1
0: all assays above

CN(c1ccc(C(N)=O)nn1)C1CCC1
0: all assays above

CCC(=O)Nc1nc(C)cs1
0: all assays above

CC(=O)c1ccc(N2CCC(C(N)=O)CC2)cc1
0: all assays above

CC(C)Oc1ccc(-c2csc(N)n2)cc1
0: all assays above

CC(=O)N1CCC(NCCc2ccccc2)CC1
0: all assays above
